This list was built around the results that the source calls inconclusive (neither active nor inactive); the mix of calls is not that of the screen. Where the call is inconclusive, the potency comes from a doubtful curve fit. Active and inactive are the calls of the source. Calls come from the whole dose curve.
target: 5-hydroxytryptamine receptor 2A (Homo sapiens) (UniProt P28223); assay: 5-hydroxytryptamine receptor 2A (HTR2A) small molecule antagonists, cell-based qHTS assay (AID 1963586); conditions: HTR2A-CHO cells, DOI-induced calcium flux, fluorescence; series mostly up to 61.5 µM; note: nearly all actives have a fitted effect of over 45% in size
Outline: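 CHO cells stably expressing human HTR2A were plated for 18 h at 37 C, then loaded with calcium dye for 1 h. Compounds were preincubated 5 min at room temperature before DOI (4 nM solution) was added. Kinetic fluorescence was read for 3 min.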
Potency is the fitted concentration of half-maximal effect.

Sequences of proteins named here, by UniProt entry; tags and fusion partners are left off. A change or cut given only in a name is not applied to a line headed by its entry.
UniProt P28223, whole entry, looked up: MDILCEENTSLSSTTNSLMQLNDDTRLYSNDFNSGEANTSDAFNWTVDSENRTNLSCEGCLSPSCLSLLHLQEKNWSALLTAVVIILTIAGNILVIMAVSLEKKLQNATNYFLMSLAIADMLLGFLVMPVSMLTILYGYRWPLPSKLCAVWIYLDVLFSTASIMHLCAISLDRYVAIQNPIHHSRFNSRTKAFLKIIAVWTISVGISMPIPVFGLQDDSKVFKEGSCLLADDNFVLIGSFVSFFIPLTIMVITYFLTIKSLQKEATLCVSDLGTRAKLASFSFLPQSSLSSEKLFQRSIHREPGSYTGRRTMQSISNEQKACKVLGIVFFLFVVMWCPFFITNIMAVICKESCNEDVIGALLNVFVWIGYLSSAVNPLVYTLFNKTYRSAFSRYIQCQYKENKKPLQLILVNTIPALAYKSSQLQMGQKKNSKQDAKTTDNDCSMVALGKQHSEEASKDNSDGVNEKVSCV
UniProt P11229: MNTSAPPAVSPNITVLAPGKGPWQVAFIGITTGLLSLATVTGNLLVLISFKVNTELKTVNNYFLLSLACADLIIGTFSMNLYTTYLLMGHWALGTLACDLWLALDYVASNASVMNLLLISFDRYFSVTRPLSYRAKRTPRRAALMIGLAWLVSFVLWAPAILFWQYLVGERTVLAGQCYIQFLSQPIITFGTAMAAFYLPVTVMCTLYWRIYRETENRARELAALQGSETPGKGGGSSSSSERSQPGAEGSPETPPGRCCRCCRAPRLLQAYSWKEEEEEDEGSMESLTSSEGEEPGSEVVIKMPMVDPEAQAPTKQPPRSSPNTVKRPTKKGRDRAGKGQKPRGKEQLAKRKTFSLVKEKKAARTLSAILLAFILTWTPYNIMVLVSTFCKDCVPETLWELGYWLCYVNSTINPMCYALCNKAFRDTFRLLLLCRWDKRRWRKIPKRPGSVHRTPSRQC

SMILES	Potency
O=C(NCc1cccnc1)Nc1ccc([N+](=O)[O-])cc1	active: 3750 nM
COC(=O)c1ccccc1S(=O)(=O)NC(=O)N(C)c1nc(C)nc(OC)n1	inconclusive: 2 nM [inhibitor, full curve, poor fit]
CC(C)CC(C)N (stereo unspecified)	inconclusive: 11.6 nM [inhibitor, full curve, poor fit]
O.O.O.O.O.O.O.O=S(=O)([O-])[O-].[Co+2]	inconclusive: 475 nM [inhibitor, full curve, poor fit]
CN(N=O)c1ccccc1	inactive

target: Muscarinic acetylcholine receptor M1 (Homo sapiens) (UniProt P11229); assay: Cholinergic receptor muscarinic 1 (CHRM1) small molecule antagonists, cell-based qHTS assay (AID 1963588); conditions: CHRM1-CHO antagonist mode, calcium flux fluorescence; series mostly up to 61.5 µM; note: nearly all actives have a fitted effect of over 40% in size
Outline: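 Compounds were tested at 15 concentrations in three independent runs. Dye-loaded CHRM1-CHO cells were exposed 5 min at room temperature before stimulation by acetylcholine added at 50nM. Intracellular calcium was read kinetically on FDSS for 3 min.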

SMILES	Potency
CON(C)C(=O)Nc1ccc(Br)cc1	inactive
O=C(O)CF	inactive
CC(=O)[O-].CC(=O)[O-].CC(=O)[O-].[Cr+3]	inactive
CC(C)C#N	inconclusive: 14.2 nM [inhibitor, full curve, poor fit]
CCc1cnc(C2=NC(C)(C(C)C)C(=O)N2)c(C(=O)O)c1 (stereo unspecified)	inconclusive: 16.3 nM [inhibitor, full curve, poor fit]
O=C(CBr)c1ccccc1	inactive
